The values below come from publication PMC3351392.

Sequences of proteins named here, by UniProt entry; tags and fusion partners are left off. A change or cut given only in a name is not applied to a line headed by its entry.
UniProt Q92558: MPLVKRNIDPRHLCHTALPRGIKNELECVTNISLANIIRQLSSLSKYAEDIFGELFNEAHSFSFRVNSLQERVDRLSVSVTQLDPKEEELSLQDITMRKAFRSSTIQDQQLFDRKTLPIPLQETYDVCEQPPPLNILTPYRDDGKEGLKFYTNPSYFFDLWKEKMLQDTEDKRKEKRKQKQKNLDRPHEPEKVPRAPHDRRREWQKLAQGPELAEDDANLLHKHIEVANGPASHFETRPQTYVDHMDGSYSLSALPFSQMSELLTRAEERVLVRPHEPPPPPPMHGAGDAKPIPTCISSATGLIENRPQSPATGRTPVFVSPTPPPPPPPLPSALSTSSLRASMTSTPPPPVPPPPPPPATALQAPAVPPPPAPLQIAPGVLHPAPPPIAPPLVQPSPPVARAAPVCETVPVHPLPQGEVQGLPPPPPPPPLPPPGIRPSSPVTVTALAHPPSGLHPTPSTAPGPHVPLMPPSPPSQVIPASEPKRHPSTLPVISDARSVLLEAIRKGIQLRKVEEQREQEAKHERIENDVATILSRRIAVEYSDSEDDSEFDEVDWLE

Results are given in words; binding and its absence hold for the method and conditions named. In cells and extracts the contact can be indirect. Binding can be weak; no strength is given.

The target of test [1] is Flag-tagged full length WAVE1 (UniProt Q92558). The test is described as follows: co-IP; co-expression of tagged proteins in cells, immunoprecipitation from pre-cleared lysates, Western blotting. In general terms: A western blot detects proteins with antibodies after separation by electrophoresis.
Test [2] addresses Flag-WAVE1 lacking the proline peptide used as bait (WAVE1 ΔPro) (UniProt Q92558). The test is described as above.

With GFP-Enah (from UniProt Q03173-3), the binding result in test [1] and in test [2] was “binds” in each case.
